# Experimental data reported in PubChem BioAssay AID624417 (National Center for Advancing Translational Sciences (NCATS), 2012).
# Protein sequences, listed by entry. Tags and fused reporters are not part of them.
# UniProt P43220, whole entry, looked up: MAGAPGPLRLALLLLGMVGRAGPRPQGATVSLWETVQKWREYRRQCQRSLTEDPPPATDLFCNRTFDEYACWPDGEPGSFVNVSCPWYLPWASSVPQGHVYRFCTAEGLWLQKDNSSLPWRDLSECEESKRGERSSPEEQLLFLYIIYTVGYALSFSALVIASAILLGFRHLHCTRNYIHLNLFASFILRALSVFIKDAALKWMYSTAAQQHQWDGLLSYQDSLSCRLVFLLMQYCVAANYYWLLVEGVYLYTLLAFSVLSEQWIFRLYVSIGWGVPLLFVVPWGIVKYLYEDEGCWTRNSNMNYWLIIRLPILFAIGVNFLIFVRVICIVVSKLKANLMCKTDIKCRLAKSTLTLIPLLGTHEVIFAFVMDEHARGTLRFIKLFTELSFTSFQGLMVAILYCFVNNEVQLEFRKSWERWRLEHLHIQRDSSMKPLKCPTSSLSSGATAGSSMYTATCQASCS
# Most of the hits are listed elsewhere, so they are rarer here than in the full data. Results filed as inconclusive are left out. Calls of active or inactive are those of the source. The call rests on the fitted dose curve; in most records, active means well fitted inhibition curve with a large enough effect; inconclusive means small, poorly fitted or top-dose-only effect; inactive means no such curve, though single readings can be large or run the other way.
# Target: Glucagon-like peptide 1 receptor (Homo sapiens) (UniProt P43220)
# Assay: qHTS of GLP-1 Receptor Inverse Agonists (Inhibition Mode); further: nearly all actives have a fitted effect of over 55% in size
# Conditions: HEK293 GLP-1R CRE-luciferase, luminescence, 24 h, GLP-1R form is constitutively active; at 38.3 µM (top of the series)
# From the text: The overall goal of this project was to develop a novel assay for discovering small molecule ligands for class B1 G protein-coupled receptors (GPCRs). Very few agonists (or inverse agonists in inhibition mode) with generally weak activity for this entire group of physiologically important receptors are known to date. To establish proof-of-principle that this critical bottleneck can be overcome with a suitable screening approach, our studies focused on the class B1 receptor for glucagon-like peptide-1 (GLP-1R), a potential therapeutic target for diabetes and neurodegenerative disease. The assay was developed using a cell-based functional readout. Toward this goal, stably transfected HEK293 cell clones were established that co-express (i) a cAMP-responsive luciferase reporter gene, and (ii) constitutively active GLP-1R that upon ligand interaction inhibit (inverse agonists) the luciferase activity. […]
# Six ul of cell suspension (200 cells/uL in DMEM + 10% Nu serum + 1% pen-strep) is dispensed in a white solid 1536-well plate. […] A luminescence read is obtained on the PerkinElmer Viewlux after 12 min incubation at room temperature.
# On the % scale 0 is the no-effect control and ±100 the full control effect.
row,Structure (SMILES),"activity change, negative = inhibition"
1,O=c1ccc2ccc(OCc3ccccc3)cc2o1,inactive: 27.6%
2,O=C1CC(c2ccccc2)Oc2cc(O)ccc21 (configuration not stated),inactive: 43%
